For the experiment, the target named is T1, MycHDA19 (Myc-tagged histone deacetylase 19) (Arabidopsis thaliana) (UniProt O22446).
T1 sequence: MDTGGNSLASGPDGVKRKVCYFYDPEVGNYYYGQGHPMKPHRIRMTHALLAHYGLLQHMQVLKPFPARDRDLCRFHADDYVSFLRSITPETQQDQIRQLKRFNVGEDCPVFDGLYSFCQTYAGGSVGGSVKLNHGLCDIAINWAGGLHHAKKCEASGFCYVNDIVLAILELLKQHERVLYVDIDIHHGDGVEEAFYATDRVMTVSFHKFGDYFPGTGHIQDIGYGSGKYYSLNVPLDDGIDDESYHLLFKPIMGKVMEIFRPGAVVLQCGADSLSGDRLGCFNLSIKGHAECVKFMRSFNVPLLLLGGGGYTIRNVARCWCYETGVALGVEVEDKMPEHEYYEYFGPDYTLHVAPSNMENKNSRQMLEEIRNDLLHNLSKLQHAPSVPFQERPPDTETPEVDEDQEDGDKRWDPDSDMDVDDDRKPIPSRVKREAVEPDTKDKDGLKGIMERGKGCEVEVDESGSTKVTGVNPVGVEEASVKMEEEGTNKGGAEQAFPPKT
The experiment is described as follows: affinity purification with mass spectrometry.

Results are given in words; binding and its absence hold for the method and conditions named. Binding seen in cells or lysates may run through a third protein. A yes stands for co-enrichment or nearness to the bait. Other partners may have been found. Where a sequence is shown, tags or fusion partners need not be part of it.

B1: CRU2 (protein, UniProt P15456 25-455)
chain: QWPNECQLDQLNALEPSQIIKSEGGRIEVWDHHAPQLRCSGFAFERFVIEPQGLFLPTFLNAGKLTFVVHGRGLMGRVIPGCAETFMESPVFGEGQGQGQSQGFRDMHQKVEHLRCGDTIATPSGVAQWFYNNGNEPLILVAAADLASNQNQLDRNLRPFLIAGNNPQGQEWLQGRKQQKQNNIFNGFAPEILAQAFKINVETAQQLQNQQDNRGNIVKVNGPFGVIRPPLRRGEGGQQPHEIANGLEETLCTMRCTENLDDPSDADVYKPSLGYISTLNSYNLPILRLLRLSALRGSIRKNAMVLPQWNVNANAALYVTNGKAHIQMVNDNGERVFDQEISSGQLLVVPQGFSVMKHAIGEQFEWIEFKTNENAQVNTLAGRTSVMRGLPLEVITNGYQISPEEAKRVKFSTIETTLTHSSPMSYGRPRA
As to B1, the binding entry is “binds”.

B2: LACS6 (protein, UniProt Q8LPS1 39-701)
chain: AGEFCLDNGYSVVLPEKLNTGSWNVYRSAKSPFKLVSRFPDHPDIATLHDNFEHAVHDFRDYKYLGTRVRVDGTVGDYKWMTYGEAGTARTALGSGLVHHGIPMGSSVGIYFINRPEWLIVDHACSSYSYVSVPLYDTLGPDAVKFIVNHATVQAIFCVAETLNSLLSCLSEMPSVRLVVVVGGLIESLPSLPSSSGVKVVSYSVLLNQGRSNPQRFFPPKPDDVATICYTSGTTGTPKGVVLTHANLIANVAGSSFSVKFFSSDVYISYLPLAHIYERANQILTVYFGVAVGFYQGDNMKLLDDLAALRPTVFSSVPRLYNRIYAGIINAVKTSGGLKERLFNAAYNAKKQALLNGKSASPIWDRLVFNKIKDRLGGRVRFMTSGASPLSPEVMEFLKVCFGGRVTEGYGMTETSCVISGMDEGDNLTGHVGSPNPACEVKLVDVPEMNYTSADQPHPRGEICVRGPIIFTGYYKDEIQTKEVIDEDGWLHTGDIGLWLPGGRLKIIDRKKNIFKLAQGEYIAPEKIENVYAKCKFVGQCFIYGDSFNSSLVAVVSVDPDVLKSWAASEGIKGGDLRELCNNPRVKAAVLSDMDTVGREAQLRGFEFAKAVTLVLEPFTLENGLLTPTFKIKRPQAKEYFAEAITNMYKELGASDPSANRGL
Take B2: the binding entry is recorded as “binds”.

B3: ICL (protein, UniProt P28297 1-576)
chain: MAASFSVPSMIMEEEGRFEAEVAEVQTWWSSERFKLTRRPYTARDVVALRGHLKQGYASNEMAKKLWRTLKSHQANGTASRTFGALDPVQVTMMAKHLDTIYVSGWQCSSTHTSTNEPGPDLADYPYDTVPNKVEHLFFAQQYHDRKQREARMSMSREERTKTPFVDYLKPIIADGDTGFGGTTATVKLCKLFVERGAAGVHIEDQSSVTKKCGHMAGKVLVAVSEHINRLVAARLQFDVMGTETVLVARTDAVAATLIQSNIDARDHQFILGATNPSLRGKSLSSLLAEGMTVGKNGPALQSIEDQWLGSAGLMTFSEAVVQAIKRMNLNENEKNQRLSEWLTHARYENCLSNEQGRVLAAKLGVTDLFWDWDLPRTREGFYRFQGSVAAAVVRGWAFAQIADIIWMETASPDLNECTQFAEGIKSKTPEVMLAYNLSPSFNWDASGMTDQQMVEFIPRIARLGYCWQFITLAGFHADALVVDTFAKDYARRGMLAYVERIQREERTHGVDTLAHQKWSGANYYDRYLKTVQGGISSTAAMGKGVTEEQFKESWTRPGADGMGEGTSLVVAKSRM
B3: the binding result is on record as “binds”.

B4: AT5G36790 (protein, UniProt P0DKC4 55-362)
chain: TSSNITPRAMATQQLENADQLIDSVETFIFDCDGVIWKGDKLIEGVPETLDMLRAKGKRLVFVTNNSTKSRKQYGKKFETLGLNVNEEEIFASSFAAAAYLQSINFPKDKKVYVIGEEGILKELELAGFQYLGGPDDGKRQIELKPGFLMEHDHDVGAVVVGFDRYFNYYKIQYGTLCIRENPGCLFIATNRDAVTHLTDAQEWAGGGSMVGALVGSTQREPLVVGKPSTFMMDYLADKFGIQKSQICMVGDRLDTDILFGQNGGCKTLLVLSGVTSISMLESPENKIQPDFYTSKISDFLSPKAATV
As for B4, the binding entry is given as “binds”.

B5: CCT7 (protein, UniProt Q9SF16 1-557)
chain: MASMMQPQIILLKEGTDTSQGKAQLVSNINACTAVGDVVRTTLGPRGMDKLIHDDKGSVTISNDGATIMKLLDIVHPAAKILVDIAKSQDSEVGDGTTTVVLLAAEFLKEAKPFIEDGVHAQNLIRSYRTASTLAIAKVKELAVSIEGKSVEEKKGLLAKCAATTLSSKLIGGEKEFFATMVVDAVMAIGNDDRLNLIGIKKVPGGNMRDSFLVDGVAFKKTFSYAGFEQQPKKFLNPKILLLNIELELKSEKENAEIRLSDPSQYQSIVDAEWNIIYDKLDKCVESGAKVVLSRLAIGDLATQYFADRDIFCAGRVAEEDLNRVAAAAGGTVQTSVNNIIDEVLGTCEIFEEKQVGGERFNIFSGCPSGRTATIVLRGGADQFIEEAERSLHDAIMIVRRAVKNSTVVPGGGAIDMEISKYLRQHSRTIAGKSQLFINSYAKALEVIPRQLCDNAGFDATDVLNKLRQKHAMQSGEGASYGVDINTGGIADSFANFVWEPAVVKINAINAATEAACLILSVDETVKNPKSESAQGDAAGAMGRGRGGGRGRGMRRR
In the case of B5, the binding entry is on record as “binds”.

B6: SIN3-like (SNL) protein 1 (protein, UniProt Q9SRH9 1-1372)
chain: MKRIRDDVYASGSQFRRPLGSSRGQLCGQSPVHGSGDTEEEEEGGSRRVSQKLTTNDALSYLREVKEMFQDQREKYDRFLEVMKDFKAQRTDTGGVIARVKELFKGHNNLIYGFNTFLPKGYEITLIEEDDALPKKTVEFEQAINFVNKIKMRFKHDEHVYKSFLEILNMYRKENKEIKEVYNEVSILFQGHLDLLEQFTRFLPASLPSHSAAQHSRSQAQQYSDRGSDPPLLHQMQVEKERRRERAVALRGDYSVERYDLNDDKTMVKIQREQRKRLDKENRARRGRDLDDREAGQDNLHHFPEKRKSSRRAEALEAYSGSASHSEKDNLKSMYKQAFVFCEKVKDRLCSQDDYQTFLKCLNIFSNGIIQRKDLQNLVSDLLGKFPDLMDEFNQFFERCESITDGFQRLAGVMSKKLFSSEEQLSRPMKVEEKESEHKPELEAVKETEQCKKEYMGKSIQELDLSDCECCTPSYRLLPADYPIPIASQRSELGAEVLNDHWVSVTSGSEDYSFKHMRRNQYEESLFRCEDDRFELDMLLESVSSAARSAESLLNIITEKKISFSGSFRIEDHFTALNLRCIERLYGDHGLDVIDILNKNPATALPVILTRLKQKQGEWKKCRDDFDKVWANVYAKNHYKSLDHRSFYFKQQDSKNLSAKSLLAEIKELKEKSQNDDDVLLSISAGYRQPINPNLEYEYLNRAIHEDMFKVVQFSCEELCSTKEQLSKVLRLWENFLEAVLGVPPRAKGTDLVEDVVINPKTLDVNHSTSPNGEAAVSSGGDTARLASRKLKSAANGDENSSSGTFKHGIGLLNKDSTGKENLEDVEIANRDGVACSAVKPQKEQETGNEAEKRFGKPIPMDISERAAISSISIPSGAENNHCVVGKEVLPGAHEIQAKPSDTLTDIHHDVDSIETVHSTQGGDVGNSIVLANGLRSDSSKGTRNSDDPEGPSRNEKEEGELSPNGDFEDNFGVYKDHGVKSTSKPENSAEAEVEADAEVENEDDADDVDSENASEASGTESGGDVCSQDEDREEENGEHDEIDGKAESEGEAEGMDPHLLEGESELLPQSERVLLSVRPLSKHVAAVLCDERTKDLQVFYGNDDFYVLFRLHQILYERILYAKRNCSGGELKSKNLKDTNAGDPYARFMRVLYGLLDGSAENTKFEDECRAIIGNQSYVLFTLDKLIYRLVKQLQAIVADEMDNKLLQLYEYEKSRKPGRVIDSVYYENVRVLVHEENIYRLECSSLPSRLSIQLMDNIIEKPEAYAVSMDPTFASYMQTELLSVSSGKKEEGHDIVLQRNLTGLYDLCKAMEGVEVVNGLECKMSCSSYKIAYVLDTEDYFHRKKKKKKTEQLWQRNKVRVERFHRFLSA
Regarding B6, the binding entry is reported as “binds”.

B7: SIN3-like (SNL) protein 2 (protein, UniProt Q9LFQ3 1-1367)
chain: MKRIRDDIYATGSQFKRPLGSSRGESYEQSPITGGGSIGEGGINTQKLTTDDALTYLKEVKEMFQDQRDKYDMFLEVMKDFKAQKTDTSGVISRVKELFKGHNNLIFGFNTFLPKGFEITLDDVEAPSKKTVEFEEAISFVNKIKTRFQHNELVYKSFLEILNMYRKDNKDITEVYNEVSTLFEDHSDLLEEFTRFLPDSLAPHTEAQLLRSQAQRYDDRGSGPPLVRRMFMEKDRRRERTVASRGDRDHSVDRSDLNDDKSMVKMHRDQRKRVDKDNRERRSRDLEDGEAEQDNLQHFSEKRKSSRRMEGFEAYSGPASHSEKNNLKSMYNQAFLFCEKVKERLCSQDDYQAFLKCLNMFSNGIIQRKDLQNLVSDVLGKFPDLMDEFNQFFERCESIDGFQHLAGVMSKKSLGSEENLSRSVKGEEKDREHKRDVEAAKEKERSKDKYMGKSIQELDLSDCERCTPSYRLLPPDYPIPSVRHRQKSGAAVLNDHWVSVTSGSEDYSFKHMRRNQYEESLFRCEDDRFELDMLLESVGSAAKSAEELLNIIIDKKISFEGSFRIEDHFTALNLRCIERLYGDHGLDVTDLIRKNPAAALPVILTRLKQKQDEWTKCREGFNVVWADVYAKNHYKSLDHRSFYFKQQDSKNLSAKALVSEVKDLKEKSQKEDDVVLSISAGYRQPIIPHLEYDYLDRAIHEDLFKLVQFSCEEICSTKEQTGKVLKLWANFLELMLDVAPRAKGSDSVEDVVETQHQRAFTSGEANESSDAISLVSRQLKFATNGDVHASSGVSKHGETGLLNRDSSGKENLKDGDLANKDVATCAEKPQKDQEIGNGAAKRSGDVDERVATSSSSFPSGVENNNGKVGSRDSSGSRGILSKPSEAIDKVDSIQHTQGVDIGRIIVLGNGLQSDTSKANSNYDESGGPSKIEKEEGELSPVGDSEDNFVVYEDRELKATAKTEHSVEAEGENDEDADDEDGDDASEAGEDASGTESIGDECSQDDNGVEEEGEHDEIDGKAESEGEAEGMESHLIEDKGLFPSSERVLLSVKPLSKHIAAAALVDEKKKDSRVFYGNDDFYVLFRLHRVSAIDSYDLLSHILYERILSAKTYCSGSEMKLRNTKDTCSPDPYARFMNALFSLLNGSAENSKFEDECRAIIGNQSYVLFTLEKLIYKLVKQLQAVVADDMDNKLLQLYEYENSRRPGRVFDSVYYENARILLHEENIYRLECSSSPSRLSIQLMDNIIEKPDAYAVSMEPTFTSYLQNEFLSNSSGKKELQDIVLQRNMRGYNGLDDLAVACKAMEGVQVINGLECKMSCSSYKISYVLDTEDFFHRKKKQKKSNNLSLAKLSQNRIARFHKFLSASR
As to B7, the binding entry was “binds”.

B8: FdC1 (protein, UniProt O23344 57-154)
chain: VEHDGKTTELEVEPDETILSKALDSGLDVPYDCNLGVCMTCPAKLVTGTVDQSGGMLSDDVVERGYTLLCASYPTSDCHIKMIPEEELLSLQLATAND
As to B8, the binding result is given as “binds”.

Source of the values: article doi:10.1101/2025.11.04.686508.
